Experimental data published in PMC7819943, “Rice protein-binding microarrays: a tool to detect cis-acting elements near promoter regions in rice”.
The other results are listed elsewhere or left out.

Sequences of proteins named here, by UniProt entry; tags and fusion partners are left off.
UniProt Q0JBA9, entry or part of it: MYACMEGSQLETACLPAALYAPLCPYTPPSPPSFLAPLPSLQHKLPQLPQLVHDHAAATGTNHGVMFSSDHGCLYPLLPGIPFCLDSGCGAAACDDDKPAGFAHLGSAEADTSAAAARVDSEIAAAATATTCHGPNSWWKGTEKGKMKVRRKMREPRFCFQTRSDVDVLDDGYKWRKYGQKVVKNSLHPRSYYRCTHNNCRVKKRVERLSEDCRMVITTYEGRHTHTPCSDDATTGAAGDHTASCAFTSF

target: OsWRKY34 (Oryza sativa, UniProt Q0JBA9 1-250); experiment: protein-binding microarray (RPBM); PBS, 2% BSA, 51.3 ng/ul salmon testes DNA, 50 uM zinc acetate, 200 nM TF, 25 C, 1 h; high values mean tight binding; settings: protein: recombinant; tags: N-terminal polyhistidine and DsRed monomer fusion (pET32a); label: CyDye5-dUTP incorporated in the synthesized complementary strand; 3' TTTTT single-stranded linker to array surface; dsDNA, one strand shown
Procedure, shortened: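 Ni–NTA purification followed expression in E. coli BL21-CodonPlus of transcription factors fused N-terminally to a polyhistidine tag and DsRed. At 200 nM in PBS with 2% BSA, salmon testes DNA and 50 µM zinc acetate, the protein was incubated for 1 h at 25 °C with a custom Agilent array that had been primer-extended with Cy5-dUTP and blocked with 2% BSA. After washing, the array was read on an Axon 4000B scanner. The binding signal is per-feature fluorescence intensity in arbitrary units.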

Sequence | binding signal
GAATTACGCTTTGGGCCACATTTTATTACCTATATTTCACCGGAGTCACCTAGTGCAG | 8230 fluorescence intensity (a.u.)
GCCATATTATTTTTCCTTTGTCCTAATTAATGTTAGAAATCGGAGTCACCTAGTGCAG | 9440 fluorescence intensity (a.u.)
TACTTGCTTTGCTTTACTCTCTCATCAACTTTTTTTTTTCCGGAGTCACCTAGTGCAG | 8470 fluorescence intensity (a.u.)
GTTTTATCTGAAAAAAGCAAACAGAGGCTCTTCCAGTCATCGGAGTCACCTAGTGCAG | 8020 fluorescence intensity (a.u.)
CCATCTGACCCGTGCGTATCCACATGTGCCTACATATTTACGGAGTCACCTAGTGCAG | 11100 fluorescence intensity (a.u.)
CTCCTCCACTCCTCCTCTCTCCTCCGCCGCCGCGGCCATGCGGAGTCACCTAGTGCAG | 8110 fluorescence intensity (a.u.)
CTTCGTGTTCGTCGTGGTCTCTTGTTTCTTCTTCTTCTTCCGGAGTCACCTAGTGCAG | 22000 fluorescence intensity (a.u.)
AGCACCACACTTGTACCTTACATGGCTCATGTGTAATTGACGGAGTCACCTAGTGCAG | 10300 fluorescence intensity (a.u.)
GAAACGTGTCACGCCTCTCCATCCACCTGTCGCATCTACCCGGAGTCACCTAGTGCAG | 8150 fluorescence intensity (a.u.)
CCATTTGGTCTTTCTAACTCTCTCTATATATATAGTCATACGGAGTCACCTAGTGCAG | 9880 fluorescence intensity (a.u.)
TCCTACCCGGGCCCACATGTCGGAGCTGTCAAACGGCTCACGGAGTCACCTAGTGCAG | 9670 fluorescence intensity (a.u.)
TCTAAATGGACGTGATGCCGTTTTTATGAACAGATTAAGCCGGAGTCACCTAGTGCAG | 14600 fluorescence intensity (a.u.)
TACATTTTACGTACAGTTTGTATTAGGTCTGACATATTCTCGGAGTCACCTAGTGCAG | 8730 fluorescence intensity (a.u.)
GGCATCCCACCACCAGCTGCTACAGGCTGCATCACTCGATCGGAGTCACCTAGTGCAG | 8750 fluorescence intensity (a.u.)
TCGTGGTTTTAGTCTTGGTCCATGCCAGATTGCGATTGAACGGAGTCACCTAGTGCAG | 8050 fluorescence intensity (a.u.)
TATTTTTCAGATTGTATTTCTGTTTGGACTCTTTTTTTTCCGGAGTCACCTAGTGCAG | 11900 fluorescence intensity (a.u.)
GGTTGGTTTCTTTCGTTGGATTGTTTCGAGCCAGGGTTTCCGGAGTCACCTAGTGCAG | 16900 fluorescence intensity (a.u.)
TCCGTTTGTCTTCTACCTCCCGACGAAGCCATTGTCAATCCGGAGTCACCTAGTGCAG | 9920 fluorescence intensity (a.u.)
TTTGATTTCATTGCATCTAGGTGTTGAAAAACCTTGTCCGCGGAGTCACCTAGTGCAG | 8460 fluorescence intensity (a.u.)
TCCTTTCGTTTTTCCTCCTGCAGTGGCAGATACTGTAATTCGGAGTCACCTAGTGCAG | 8120 fluorescence intensity (a.u.)
ACTGGGGAGAGGCTAGCTAGGGGAATCCATGCACCAACTTCGGAGTCACCTAGTGCAG | 8090 fluorescence intensity (a.u.)
GCGACGACGCCACGTCATCTCACGCTCAAGCAAATCGCGCCGGAGTCACCTAGTGCAG | 8250 fluorescence intensity (a.u.)
AATCACTCCGCGTCATCTTGTTGTCTACTCCATCATATGCCGGAGTCACCTAGTGCAG | 9900 fluorescence intensity (a.u.)
ACTTCTCTTTCCTGTAGACAGTCTGTGATAATTTTGTTCTCGGAGTCACCTAGTGCAG | 14300 fluorescence intensity (a.u.)
TCGCCACCAACTCCGAGCGACAACCGGTACTTTCTCCTTCCGGAGTCACCTAGTGCAG | 8330 fluorescence intensity (a.u.)
CCTCTCTGCCGCCCTATTCCATGCATCGAGCGTTAAACCGCGGAGTCACCTAGTGCAG | 12400 fluorescence intensity (a.u.)
GGAATTCACAACCACACCCTTCACACATTTCTCCTCCGCCCGGAGTCACCTAGTGCAG | 8030 fluorescence intensity (a.u.)

In a second layout: entries from further up.
Sequence	binding signal
TCCTTTCGTTTTTCCTCCTGCAGTGGCAGATACTGTAATTCGGAGTCACCTAGTGCAG	8120 fluorescence intensity (a.u.)
ACTGGGGAGAGGCTAGCTAGGGGAATCCATGCACCAACTTCGGAGTCACCTAGTGCAG	8090 fluorescence intensity (a.u.)
GCGACGACGCCACGTCATCTCACGCTCAAGCAAATCGCGCCGGAGTCACCTAGTGCAG	8250 fluorescence intensity (a.u.)

Copied from the list.
binding signal, TCGCCACCAACTCCGAGCGACAACCGGTACTTTCTCCTTCCGGAGTCACCTAGTGCAG is entered as 8330 fluorescence intensity (a.u.)
binding signal, TCCTACCCGGGCCCACATGTCGGAGCTGTCAAACGGCTCACGGAGTCACCTAGTGCAG is entered as 9670 fluorescence intensity (a.u.)

(further entries)

Sequence | binding signal
TGCGTCTTGTATGAACCCTAACTCTTTTTCTCTTCTTTTTCGGAGTCACCTAGTGCAG | 9760 fluorescence intensity (a.u.)
CTTACTGTTACTACGGTATCTCTAATTTCTTCCCTTGCAGCGGAGTCACCTAGTGCAG | 8420 fluorescence intensity (a.u.)
TCTCCAACAGCTCCTACATCGTCACCCGCCTAATAACTGACGGAGTCACCTAGTGCAG | 10200 fluorescence intensity (a.u.)
TTGCACTATATCGCACCCACCTGCCAAGCTGTTGTACCGTCGGAGTCACCTAGTGCAG | 8510 fluorescence intensity (a.u.)
AGTTGGTTGGTAATTGTGTTCCTCTTTTCTTTTTTCTTTTCGGAGTCACCTAGTGCAG | 9400 fluorescence intensity (a.u.)
TTCTAAACTTCCATACACAATTTTTCAGTCACATCGTTTCCGGAGTCACCTAGTGCAG | 8580 fluorescence intensity (a.u.)
TGACCTCCATTTTTTTTTCCTTTTCACTTCTCTTGTTCTTCGGAGTCACCTAGTGCAG | 8560 fluorescence intensity (a.u.)
GACTCATTTATTATTTTCATGGTTTATCATTCGTAGAGTACGGAGTCACCTAGTGCAG | 8930 fluorescence intensity (a.u.)
TTGTAAGTATTTTACGCTTTATTTACGTTTGGAACTGTATCGGAGTCACCTAGTGCAG | 9990 fluorescence intensity (a.u.)
CTTCCCTGCCTGTTTGTCATAGCCATGGCCGCTCTGCAGACGGAGTCACCTAGTGCAG | 11400 fluorescence intensity (a.u.)
CCTCGCTCCGTCGCTCACAACCCGTCTCCTGCTCGATCCGCGGAGTCACCTAGTGCAG | 9140 fluorescence intensity (a.u.)
CTGTGCTTCTCCTCCGCGCTCCACATCACATCGCATCACCCGGAGTCACCTAGTGCAG | 10500 fluorescence intensity (a.u.)
TCTTTCAGCCATGTTGATGCGCACTCAGATAGATCTATCTCGGAGTCACCTAGTGCAG | 8090 fluorescence intensity (a.u.)
TCCGCCGCGAGCGGCGCTTCCTAGTTCCTACCTCCGTTTCCGGAGTCACCTAGTGCAG | 11600 fluorescence intensity (a.u.)
CATTATTGCCCTTGACAGTTTTCTTATTTACCTGCCATACCGGAGTCACCTAGTGCAG | 12000 fluorescence intensity (a.u.)
CCTCCACTTGGCCCGCCATCTCGCCGTCCCTTCTCACGAGCGGAGTCACCTAGTGCAG | 10300 fluorescence intensity (a.u.)
TGTGTCTGTGTGTGTGTTTTTTTTCCCGATCAAAGATCGGCGGAGTCACCTAGTGCAG | 9380 fluorescence intensity (a.u.)
TACCACAACAAACTGCTACCACTTCACCATTCATAATTCGCGGAGTCACCTAGTGCAG | 11300 fluorescence intensity (a.u.)
GCAGCCATGATTTTCTGCGTCTAACTTTGACCGTCTGTCTCGGAGTCACCTAGTGCAG | 10200 fluorescence intensity (a.u.)
TGGTCGAAAAGTCAACGGCGTCATACATTAAAATACGGAGCGGAGTCACCTAGTGCAG | 12600 fluorescence intensity (a.u.)
TTGTTTCCACGCAATTCTCAATAAAGCACCAATGCACCATCGGAGTCACCTAGTGCAG | 8130 fluorescence intensity (a.u.)
GATCCCGCAAACCTCGCGCCTTTTCCGCGATTCAGCCACGCGGAGTCACCTAGTGCAG | 9640 fluorescence intensity (a.u.)
AGTAGTTTTTTAATATCACCTTAATTTACTTCATACACATCGGAGTCACCTAGTGCAG | 8470 fluorescence intensity (a.u.)
TGCCTGCATCCTTTCTGCTCTGTCCCTAAAAGTTTCACCTCGGAGTCACCTAGTGCAG | 8330 fluorescence intensity (a.u.)
GACTTTTTAACACATGTTTGACCGTTCGTCTTATTCAAAACGGAGTCACCTAGTGCAG | 10900 fluorescence intensity (a.u.)
ACCACCCGCCACGTCTCGCCCACGCGCGCGCGCGCACCGCCGGAGTCACCTAGTGCAG | 12300 fluorescence intensity (a.u.)
TGCCCGTAGCTTATATATGATTCATCCATTATCTAGAAAACGGAGTCACCTAGTGCAG | 8390 fluorescence intensity (a.u.)
